Where a chain is given by its changes, count along the chain named. The list shows a part of the results. For some of these results: At the low end of the ranking the order means little.
Experiments:
Settings in all cases: yeast three-hybrid, YBZ-1, SC-Leu-His + 0.5 mM 3-AT, 4 days
[1] = target: T1, PUM1 PUF domain R5-SGT C1007S + R1008G + Q1011T (UniProt Q14671)
T1 sequence: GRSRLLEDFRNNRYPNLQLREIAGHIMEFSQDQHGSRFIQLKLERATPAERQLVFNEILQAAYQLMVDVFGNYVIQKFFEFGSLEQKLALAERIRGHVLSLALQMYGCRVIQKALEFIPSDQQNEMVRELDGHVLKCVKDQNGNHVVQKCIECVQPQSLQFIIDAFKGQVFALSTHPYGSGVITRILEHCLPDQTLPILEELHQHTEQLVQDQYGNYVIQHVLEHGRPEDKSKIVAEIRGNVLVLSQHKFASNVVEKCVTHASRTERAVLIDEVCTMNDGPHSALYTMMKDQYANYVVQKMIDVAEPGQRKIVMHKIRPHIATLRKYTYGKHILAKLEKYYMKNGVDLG

[2] = target: T2, PUM1 PUF domain R5-SGV C1007S + R1008G + Q1011V (UniProt Q14671)
T2 sequence: T1 sequence with T184V

[3] = target: T3, PUM1 PUF domain R5-SIS C1007S + R1008I + Q1011S (UniProt Q14671)
T3 sequence: T1 sequence with G181I, T184S

[4] = target: T4, PUM1 PUF domain R5-SMG C1007S + R1008M + Q1011G (UniProt Q14671)
T4 sequence: T1 sequence with G181M, T184G

[5] = target: T5, PUM1 PUF domain R5-SMS C1007S + R1008M + Q1011S (UniProt Q14671)
T5 sequence: T1 sequence with G181M, T184S

[6] = target: T6, PUM1 PUF domain R5-SNG C1007S + R1008N + Q1011G (UniProt Q14671)
T6 sequence: T1 sequence with G181N, T184G

[7] = target: T7, PUM1 PUF domain R5-SNS C1007S + R1008N + Q1011S (UniProt Q14671)
T7 sequence: T1 sequence with G181N, T184S

[8] = target: T8, PUM1 PUF domain R5-SQA C1007S + R1008Q + Q1011A (UniProt Q14671)
T8 sequence: T1 sequence with G181Q, T184A

[9] = target: T9, PUM1 PUF domain R5-SQG C1007S + R1008Q + Q1011G (UniProt Q14671)
T9 sequence: T1 sequence with G181Q, T184G

[10] = target: T10, PUM1 PUF domain R5-SQS C1007S + R1008Q + Q1011S (UniProt Q14671)
T10 sequence: T1 sequence with G181Q, T184S

[11] = target: T11, PUM1 PUF domain R5-SRI C1007S + Q1011I (Homo sapiens) (UniProt Q14671)
T11 sequence: T1 sequence with G181R, T184I

[12] = target: T12, PUM1 PUF domain R5-SRL C1007S + Q1011L (Homo sapiens) (UniProt Q14671)
T12 sequence: T1 sequence with G181R, T184L

[13] = target: T13, PUM1 PUF domain R5-SRM C1007S + Q1011M (Homo sapiens) (UniProt Q14671)
T13 sequence: T1 sequence with G181R, T184M

[14] = target: T14, PUM1 PUF domain R5-SRT C1007S + Q1011T (UniProt Q14671)
T14 sequence: T1 sequence with G181R

[15] = target: T15, PUM1 PUF domain R5-SRV C1007S + Q1011V (Homo sapiens) (UniProt Q14671)
T15 sequence: T1 sequence with G181R, T184V

[16] = target: T16, PUM1 PUF domain R5-SVG C1007S + R1008V + Q1011G (UniProt Q14671)
T16 sequence: T1 sequence with G181V, T184G

[17] = target: T17, PUM1 PUF domain R5-SVS C1007S + R1008V + Q1011S (UniProt Q14671)
T17 sequence: T1 sequence with G181V, T184S

[18] = target: T18, PUM1 PUF domain R5-SVT C1007S + R1008V + Q1011T (Homo sapiens) (UniProt Q14671)
T18 sequence: T1 sequence with G181V

[19] = target: T19, PUM1 PUF domain R5-SVV C1007S + R1008V + Q1011V (UniProt Q14671)
T19 sequence: T1 sequence with G181V, T184V

[20] = target: T20, PUM1 PUF domain R5-TFY C1007T + R1008F + Q1011Y (UniProt Q14671)
T20 sequence: T1 sequence with S180T, G181F, T184Y

[21] = target: T21, PUM1 PUF domain R5-TNG C1007T + R1008N + Q1011G (UniProt Q14671)
T21 sequence: T1 sequence with S180T, G181N, T184G

[22] = target: T22, PUM1 PUF domain R5-TQG C1007T + R1008Q + Q1011G (UniProt Q14671)
T22 sequence: T1 sequence with S180T, G181Q, T184G

[23] = target: T23, PUM1 PUF domain R5-TRA C1007T + Q1011A (UniProt Q14671)
T23 sequence: T1 sequence with S180T, G181R, T184A

[24] = target: T24, PUM1 PUF domain R5-TRF C1007T + Q1011F (UniProt Q14671)
T24 sequence: T1 sequence with S180T, G181R, T184F

[25] = target: T25, PUM1 PUF domain R5-TRG C1007T + Q1011G (Homo sapiens) (UniProt Q14671)
T25 sequence: T1 sequence with S180T, G181R, T184G

[26] = target: T26, PUM1 PUF domain R5-TRK C1007T + Q1011K (Homo sapiens) (UniProt Q14671)
T26 sequence: T1 sequence with S180T, G181R, T184K

[27] = target: T27, PUM1 PUF domain R5-TRL C1007T + Q1011L (UniProt Q14671)
T27 sequence: T1 sequence with S180T, G181R, T184L

[28] = target: T28, PUM1 PUF domain R5-TRS C1007T + Q1011S (Homo sapiens) (UniProt Q14671)
T28 sequence: T1 sequence with S180T, G181R, T184S

[29] = target: T29, PUM1 PUF domain R5-TRV C1007T + Q1011V (Homo sapiens) (UniProt Q14671)
T29 sequence: T1 sequence with S180T, G181R, T184V

[30] = target: T30, PUM1 PUF domain R5-TRY C1007T + Q1011Y (UniProt Q14671)
T30 sequence: T1 sequence with S180T, G181R, T184Y

[31] = target: T31, PUM1 PUF domain R5-TYF C1007T + R1008Y + Q1011F (UniProt Q14671)
T31 sequence: T1 sequence with S180T, G181Y, T184F

[32] = target: T32, PUM1 PUF domain R5-VHL C1007V + R1008H + Q1011L (UniProt Q14671)
T32 sequence: T1 sequence with S180V, G181H, T184L

[33] = target: T33, PUM1 PUF domain R5-VNR C1007V + R1008N + Q1011R (Homo sapiens) (UniProt Q14671)
T33 sequence: T1 sequence with S180V, G181N, T184R

[34] = target: T34, PUM1 PUF domain R5-VRV C1007V + Q1011V (Homo sapiens) (UniProt Q14671)
T34 sequence: T1 sequence with S180V, G181R, T184V

[35] = target: T35, PUM1 PUF domain R5-VYF C1007V + R1008Y + Q1011F (UniProt Q14671)
T35 sequence: T1 sequence with S180V, G181Y, T184F

[36] = target: T36, PUM1 PUF domain R5-VYY C1007V + R1008Y + Q1011Y (UniProt Q14671)
T36 sequence: T1 sequence with S180V, G181Y, T184Y

[37] = target: T37, PUM1 PUF domain R5-WGF C1007W + R1008G + Q1011F (UniProt Q14671)
T37 sequence: T1 sequence with S180W, T184F

[38] = target: T38, PUM1 PUF domain R5-WRD C1007W + Q1011D (Homo sapiens) (UniProt Q14671)
T38 sequence: T1 sequence with S180W, G181R, T184D

[39] = target: T39, PUM1 PUF domain R5-WWA C1007W + R1008W + Q1011A (Homo sapiens) (UniProt Q14671)
T39 sequence: T1 sequence with S180W, G181W, T184A

[40] = target: T40, PUM1 PUF domain R5-YNG C1007Y + R1008N + Q1011G (UniProt Q14671)
T40 sequence: T1 sequence with S180Y, G181N, T184G

For “GGCUAGAACUAGUGGAUCCCCCGGCGCCCGGCGGCUCGAGCCCGGGUAAGUGUCAAUAGUCUGCAUGCCGCCGGGCGCCAUGCCUGCAGGUCGACUCUAGAAAACAUG”, the binding signal (log2 enrichment (interaction score)) [1] was -5.62, the binding signal (log2 enrichment (interaction score)) [2] was -2.93 and the binding signal (log2 enrichment (interaction score)) [3] was -8.21. The binding signal (log2 enrichment (interaction score)) [4] was -2.65, the binding signal (log2 enrichment (interaction score)) [5] was under -7.64 and the binding signal (log2 enrichment (interaction score)) [6] was under -7.9. The binding signal (log2 enrichment (interaction score)) [7] was -6.12, the binding signal (log2 enrichment (interaction score)) [8] was under -7.76 and the binding signal (log2 enrichment (interaction score)) [9] was -2.65. The binding signal (log2 enrichment (interaction score)) [10] was -7.12, the binding signal (log2 enrichment (interaction score)) [11] was -1.61 and the binding signal (log2 enrichment (interaction score)) [12] was -0.35. It also gave a binding signal (log2 enrichment (interaction score)) [13] of -0.5, a binding signal (log2 enrichment (interaction score)) [14] of -4.25 and a binding signal (log2 enrichment (interaction score)) [15] of -1.26. It also gave a binding signal (log2 enrichment (interaction score)) [16] of -2.69, a binding signal (log2 enrichment (interaction score)) [17] of -4.52 and a binding signal (log2 enrichment (interaction score)) [18] of -3.39. The binding signal (log2 enrichment (interaction score)) [19] was -3.33, the binding signal (log2 enrichment (interaction score)) [20] was under -7.75 and the binding signal (log2 enrichment (interaction score)) [21] was under -7.05. It also gave a binding signal (log2 enrichment (interaction score)) [22] of -4.97, a binding signal (log2 enrichment (interaction score)) [23] of -2.4 and a binding signal (log2 enrichment (interaction score)) [24] of -2.09. It also gave a binding signal (log2 enrichment (interaction score)) [25] of 0.16, a binding signal (log2 enrichment (interaction score)) [26] of -0.52 and a binding signal (log2 enrichment (interaction score)) [27] of -4.25. The binding signal (log2 enrichment (interaction score)) [28] was -0.42, the binding signal (log2 enrichment (interaction score)) [29] was -1.42 and the binding signal (log2 enrichment (interaction score)) [30] was under -6.49. For the same sequence, the binding signal (log2 enrichment (interaction score)) [31] was -4.82, the binding signal (log2 enrichment (interaction score)) [32] was under -6.18 and the binding signal (log2 enrichment (interaction score)) [33] was -0.56. The binding signal (log2 enrichment (interaction score)) [34] was -0.48, the binding signal (log2 enrichment (interaction score)) [35] was under -8.82 and the binding signal (log2 enrichment (interaction score)) [36] was under -7.38. It also gave a binding signal (log2 enrichment (interaction score)) [37] of under -7.56, a binding signal (log2 enrichment (interaction score)) [38] of 0.14 and a binding signal (log2 enrichment (interaction score)) [39] of 0.1. It also gave a binding signal (log2 enrichment (interaction score)) [40] of under -7.03.

From publication PMC8384837
